# In the supplement of paper PMC12819154, “High-throughput peptide-centric local stability assay extends protein–ligand identification to membrane proteins, tissues and bacteria” (Nature Structural & Molecular Biology, 2025):
# The chains behind the UniProt entries cited, without tags or fusion partners. Where a name states a change or a piece, a line headed by the entry shows the natural chain unless it says otherwise.
# UniProt Q53QV2: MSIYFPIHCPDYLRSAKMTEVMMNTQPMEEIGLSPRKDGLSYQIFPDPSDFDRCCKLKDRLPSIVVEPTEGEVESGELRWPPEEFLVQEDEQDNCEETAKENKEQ
# UniProt Q5SW79: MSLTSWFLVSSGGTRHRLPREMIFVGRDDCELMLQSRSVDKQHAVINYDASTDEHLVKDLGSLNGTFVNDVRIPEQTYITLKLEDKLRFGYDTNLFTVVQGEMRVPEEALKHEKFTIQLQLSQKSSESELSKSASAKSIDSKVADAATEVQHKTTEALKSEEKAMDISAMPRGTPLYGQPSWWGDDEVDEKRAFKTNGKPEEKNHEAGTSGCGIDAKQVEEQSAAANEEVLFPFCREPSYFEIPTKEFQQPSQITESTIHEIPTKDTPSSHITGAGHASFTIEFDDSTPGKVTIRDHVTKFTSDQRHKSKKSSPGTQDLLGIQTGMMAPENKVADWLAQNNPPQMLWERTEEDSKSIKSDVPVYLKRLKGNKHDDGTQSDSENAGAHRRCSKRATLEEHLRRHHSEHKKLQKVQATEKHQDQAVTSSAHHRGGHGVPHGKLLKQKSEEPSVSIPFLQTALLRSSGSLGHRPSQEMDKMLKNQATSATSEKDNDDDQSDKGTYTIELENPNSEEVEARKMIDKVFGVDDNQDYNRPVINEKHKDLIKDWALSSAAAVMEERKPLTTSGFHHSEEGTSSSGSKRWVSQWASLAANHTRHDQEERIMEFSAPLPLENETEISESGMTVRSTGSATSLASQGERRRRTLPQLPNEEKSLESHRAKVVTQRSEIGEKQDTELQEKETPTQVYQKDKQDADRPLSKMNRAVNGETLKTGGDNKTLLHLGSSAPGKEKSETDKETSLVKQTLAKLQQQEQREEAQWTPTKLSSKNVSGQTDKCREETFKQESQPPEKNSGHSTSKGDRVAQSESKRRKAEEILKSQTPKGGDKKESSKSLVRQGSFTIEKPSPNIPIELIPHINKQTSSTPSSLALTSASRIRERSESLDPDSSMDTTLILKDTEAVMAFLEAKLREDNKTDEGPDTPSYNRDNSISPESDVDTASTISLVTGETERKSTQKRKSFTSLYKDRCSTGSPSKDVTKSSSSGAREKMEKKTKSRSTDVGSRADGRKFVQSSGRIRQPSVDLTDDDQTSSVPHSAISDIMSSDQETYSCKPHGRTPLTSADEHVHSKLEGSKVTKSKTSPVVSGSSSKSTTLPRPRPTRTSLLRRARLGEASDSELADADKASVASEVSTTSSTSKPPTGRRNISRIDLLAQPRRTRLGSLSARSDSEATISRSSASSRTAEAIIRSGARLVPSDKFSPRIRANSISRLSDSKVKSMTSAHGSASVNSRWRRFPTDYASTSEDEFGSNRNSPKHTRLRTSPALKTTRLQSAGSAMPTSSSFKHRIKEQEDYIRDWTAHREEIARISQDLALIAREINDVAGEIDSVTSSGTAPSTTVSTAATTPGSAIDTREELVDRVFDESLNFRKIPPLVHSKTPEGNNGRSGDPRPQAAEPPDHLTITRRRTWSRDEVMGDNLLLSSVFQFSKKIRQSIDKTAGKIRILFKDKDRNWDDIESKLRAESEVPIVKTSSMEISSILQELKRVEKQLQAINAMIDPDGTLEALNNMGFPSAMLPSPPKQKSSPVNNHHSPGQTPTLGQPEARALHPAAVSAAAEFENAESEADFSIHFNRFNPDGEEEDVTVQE
# UniProt Q5T011: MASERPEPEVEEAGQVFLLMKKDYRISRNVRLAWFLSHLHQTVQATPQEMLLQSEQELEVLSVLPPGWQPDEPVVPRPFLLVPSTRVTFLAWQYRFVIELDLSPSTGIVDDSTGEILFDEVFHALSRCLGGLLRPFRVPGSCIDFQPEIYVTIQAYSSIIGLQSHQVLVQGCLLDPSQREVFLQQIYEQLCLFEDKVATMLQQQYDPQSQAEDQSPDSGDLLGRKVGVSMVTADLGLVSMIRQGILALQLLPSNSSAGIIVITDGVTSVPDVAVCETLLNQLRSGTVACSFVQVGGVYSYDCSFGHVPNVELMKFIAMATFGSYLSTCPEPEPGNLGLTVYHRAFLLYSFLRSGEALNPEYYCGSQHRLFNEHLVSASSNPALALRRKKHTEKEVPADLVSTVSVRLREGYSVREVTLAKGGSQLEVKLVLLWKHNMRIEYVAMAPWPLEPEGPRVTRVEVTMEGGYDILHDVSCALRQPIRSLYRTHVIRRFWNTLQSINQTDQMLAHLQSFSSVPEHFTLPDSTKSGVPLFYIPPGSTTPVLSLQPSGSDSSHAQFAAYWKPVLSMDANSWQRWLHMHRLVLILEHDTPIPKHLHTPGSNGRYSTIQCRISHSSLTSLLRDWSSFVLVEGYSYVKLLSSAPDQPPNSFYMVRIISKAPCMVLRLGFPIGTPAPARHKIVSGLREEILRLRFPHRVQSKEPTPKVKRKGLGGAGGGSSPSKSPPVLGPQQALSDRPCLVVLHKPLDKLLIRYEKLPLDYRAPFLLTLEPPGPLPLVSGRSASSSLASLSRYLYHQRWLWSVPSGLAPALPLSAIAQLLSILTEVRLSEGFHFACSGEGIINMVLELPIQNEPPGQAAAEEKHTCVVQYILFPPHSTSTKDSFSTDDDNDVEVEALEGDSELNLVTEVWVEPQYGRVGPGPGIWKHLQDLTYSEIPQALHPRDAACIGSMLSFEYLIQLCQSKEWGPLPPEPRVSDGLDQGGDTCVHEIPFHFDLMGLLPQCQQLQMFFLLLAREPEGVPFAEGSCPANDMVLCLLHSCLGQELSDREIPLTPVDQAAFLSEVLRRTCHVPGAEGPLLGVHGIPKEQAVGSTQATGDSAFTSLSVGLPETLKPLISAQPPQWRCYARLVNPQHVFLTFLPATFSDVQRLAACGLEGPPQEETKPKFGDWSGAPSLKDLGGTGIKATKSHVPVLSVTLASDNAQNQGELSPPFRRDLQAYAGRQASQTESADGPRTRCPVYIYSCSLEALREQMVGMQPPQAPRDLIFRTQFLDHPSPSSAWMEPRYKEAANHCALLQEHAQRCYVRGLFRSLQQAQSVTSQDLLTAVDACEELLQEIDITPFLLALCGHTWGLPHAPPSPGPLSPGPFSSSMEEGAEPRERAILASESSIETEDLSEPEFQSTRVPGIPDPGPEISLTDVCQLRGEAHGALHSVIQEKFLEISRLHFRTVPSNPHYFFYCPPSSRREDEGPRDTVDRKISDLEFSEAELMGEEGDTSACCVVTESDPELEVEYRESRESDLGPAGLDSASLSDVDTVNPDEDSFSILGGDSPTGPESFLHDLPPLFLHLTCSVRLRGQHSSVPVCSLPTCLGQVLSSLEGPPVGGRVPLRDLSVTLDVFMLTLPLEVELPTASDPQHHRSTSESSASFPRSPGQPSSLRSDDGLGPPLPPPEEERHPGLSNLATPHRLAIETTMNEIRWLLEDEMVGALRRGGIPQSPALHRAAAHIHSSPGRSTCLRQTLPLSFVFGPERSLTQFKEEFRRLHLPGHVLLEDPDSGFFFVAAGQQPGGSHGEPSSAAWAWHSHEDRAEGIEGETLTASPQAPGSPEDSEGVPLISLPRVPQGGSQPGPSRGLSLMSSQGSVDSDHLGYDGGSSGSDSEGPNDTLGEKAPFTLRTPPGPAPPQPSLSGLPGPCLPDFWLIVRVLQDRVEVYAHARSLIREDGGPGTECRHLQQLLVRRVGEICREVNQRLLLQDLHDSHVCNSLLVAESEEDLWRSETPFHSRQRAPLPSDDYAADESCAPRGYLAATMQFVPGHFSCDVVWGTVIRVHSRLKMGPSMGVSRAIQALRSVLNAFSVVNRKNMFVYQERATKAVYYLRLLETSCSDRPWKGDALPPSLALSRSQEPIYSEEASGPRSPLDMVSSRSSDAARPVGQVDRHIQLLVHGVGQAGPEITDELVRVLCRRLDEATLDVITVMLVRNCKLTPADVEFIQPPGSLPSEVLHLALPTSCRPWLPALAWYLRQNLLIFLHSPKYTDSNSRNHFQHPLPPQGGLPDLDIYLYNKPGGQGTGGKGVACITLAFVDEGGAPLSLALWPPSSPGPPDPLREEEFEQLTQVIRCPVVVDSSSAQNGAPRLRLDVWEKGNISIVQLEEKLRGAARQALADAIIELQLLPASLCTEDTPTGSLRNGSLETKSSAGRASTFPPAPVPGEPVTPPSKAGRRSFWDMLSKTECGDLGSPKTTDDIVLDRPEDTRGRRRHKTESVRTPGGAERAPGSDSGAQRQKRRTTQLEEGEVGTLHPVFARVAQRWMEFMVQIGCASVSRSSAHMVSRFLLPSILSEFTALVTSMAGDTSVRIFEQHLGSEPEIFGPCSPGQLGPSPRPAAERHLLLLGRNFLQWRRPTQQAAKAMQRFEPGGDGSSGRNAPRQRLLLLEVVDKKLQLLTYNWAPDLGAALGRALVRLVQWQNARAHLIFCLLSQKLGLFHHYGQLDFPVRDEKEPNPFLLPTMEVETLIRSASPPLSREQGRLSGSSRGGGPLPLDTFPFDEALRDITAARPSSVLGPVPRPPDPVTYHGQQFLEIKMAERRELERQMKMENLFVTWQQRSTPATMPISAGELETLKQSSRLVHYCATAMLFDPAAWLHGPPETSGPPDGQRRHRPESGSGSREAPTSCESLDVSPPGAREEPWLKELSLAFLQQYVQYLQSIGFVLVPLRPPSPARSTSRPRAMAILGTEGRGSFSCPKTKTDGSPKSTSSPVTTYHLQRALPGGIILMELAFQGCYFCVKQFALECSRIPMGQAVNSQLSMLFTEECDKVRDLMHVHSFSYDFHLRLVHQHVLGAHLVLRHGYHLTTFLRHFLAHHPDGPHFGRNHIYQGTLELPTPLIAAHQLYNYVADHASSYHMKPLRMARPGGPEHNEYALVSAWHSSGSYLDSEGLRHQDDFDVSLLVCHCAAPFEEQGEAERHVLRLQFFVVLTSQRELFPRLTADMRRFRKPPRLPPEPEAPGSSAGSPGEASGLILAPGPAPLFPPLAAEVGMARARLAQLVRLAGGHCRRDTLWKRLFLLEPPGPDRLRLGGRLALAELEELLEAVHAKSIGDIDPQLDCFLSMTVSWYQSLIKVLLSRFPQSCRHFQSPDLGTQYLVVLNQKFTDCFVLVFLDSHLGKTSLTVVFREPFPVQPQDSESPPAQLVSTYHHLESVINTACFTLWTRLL
# UniProt Q53H80, whole entry: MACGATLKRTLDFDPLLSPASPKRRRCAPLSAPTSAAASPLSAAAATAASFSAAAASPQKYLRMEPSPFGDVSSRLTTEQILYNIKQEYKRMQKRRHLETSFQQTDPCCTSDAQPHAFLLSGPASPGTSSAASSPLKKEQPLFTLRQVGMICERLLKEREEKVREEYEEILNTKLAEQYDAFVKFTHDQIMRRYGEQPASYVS
# UniProt Q4G0M1: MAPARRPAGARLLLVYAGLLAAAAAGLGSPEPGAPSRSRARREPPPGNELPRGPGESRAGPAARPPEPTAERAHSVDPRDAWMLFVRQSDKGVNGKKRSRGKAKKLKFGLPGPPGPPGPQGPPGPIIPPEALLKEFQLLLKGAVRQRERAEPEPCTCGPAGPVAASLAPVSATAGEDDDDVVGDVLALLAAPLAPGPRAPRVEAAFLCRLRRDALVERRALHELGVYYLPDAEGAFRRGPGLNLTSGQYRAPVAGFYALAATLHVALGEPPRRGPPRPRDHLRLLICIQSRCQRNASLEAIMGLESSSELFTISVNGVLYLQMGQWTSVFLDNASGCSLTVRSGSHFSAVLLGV
# UniProt Q5HY98: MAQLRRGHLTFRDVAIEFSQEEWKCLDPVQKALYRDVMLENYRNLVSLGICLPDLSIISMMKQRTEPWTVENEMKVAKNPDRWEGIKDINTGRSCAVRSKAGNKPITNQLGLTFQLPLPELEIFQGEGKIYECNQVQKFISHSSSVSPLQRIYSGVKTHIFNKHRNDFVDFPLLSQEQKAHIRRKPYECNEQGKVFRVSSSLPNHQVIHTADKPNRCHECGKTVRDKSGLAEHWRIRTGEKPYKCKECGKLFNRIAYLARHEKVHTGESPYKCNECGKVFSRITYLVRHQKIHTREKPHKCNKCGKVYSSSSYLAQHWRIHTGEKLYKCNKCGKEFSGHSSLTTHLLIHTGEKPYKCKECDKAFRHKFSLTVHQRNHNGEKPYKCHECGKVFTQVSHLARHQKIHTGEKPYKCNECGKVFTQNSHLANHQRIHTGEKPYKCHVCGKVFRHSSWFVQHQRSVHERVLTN
# UniProt Q58FG1, whole entry: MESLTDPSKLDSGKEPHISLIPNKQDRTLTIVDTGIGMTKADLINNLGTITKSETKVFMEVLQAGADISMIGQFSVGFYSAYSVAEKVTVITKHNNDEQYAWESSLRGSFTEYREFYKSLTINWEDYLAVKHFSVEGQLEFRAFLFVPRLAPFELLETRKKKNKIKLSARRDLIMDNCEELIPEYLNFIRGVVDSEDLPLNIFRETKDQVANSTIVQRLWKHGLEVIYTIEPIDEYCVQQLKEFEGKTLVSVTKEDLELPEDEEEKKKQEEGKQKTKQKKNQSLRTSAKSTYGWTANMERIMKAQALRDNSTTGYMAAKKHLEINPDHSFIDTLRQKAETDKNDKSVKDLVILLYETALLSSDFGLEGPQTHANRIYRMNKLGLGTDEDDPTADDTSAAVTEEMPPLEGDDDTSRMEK
# Some of the results follow. Small differences around the control level are noise.
# Compound: Cc1nc(Nc2ncc(C(=O)Nc3c(C)cccc3Cl)s2)cc(N2CCN(CCO)CC2)n1 [dasatinib]
# Assay: log2 fold change of tryptic peptide abundance, ligand vs vehicle (limited proteolysis) (log2 ratio); higher = more trypsin-susceptible (destabilized)
# Details: ligand concentration: 5 uM; sample: K562 cleared lysate
row,Target,log2 fold change
1,"UniProt Q53GI3 (peptide sequence: CEECGETCHISNLFR, peptide start residue: 444)",0.371
2,"UniProt Q4G0N8 (peptide sequence: KGKCMSLDTIK, peptide start residue: 555)",-0.186
3,"UniProt Q5TEC3 (peptide sequence: LHTGERPNLCADCGK, peptide start residue: 282)",-0.434
4,"MTERF2 (peptide sequence: IKDGHLANLNGSKK, peptide start residue: 344) (UniProt Q49AM1)",-0.711
5,"SAMD4B (peptide sequence: QFPMPPR, peptide start residue: 575) (UniProt Q5PRF9)",0.219
6,"FAM98B (peptide sequence: GGRPNEIEPPPPEMPPWQKR, peptide start residue: 309) (UniProt Q52LJ0)",-0.363
7,"RABGAP1L (peptide sequence: WHSNLGARPK, peptide start residue: 520) (UniProt Q5R372)",-0.444
8,"ZC3H13 (peptide sequence: GRVPELPEK, peptide start residue: 565) (UniProt Q5T200)",0.338
9,"UniProt Q5T870 (peptide sequence: TQEQCQAK, peptide start residue: 21)",-0.374
10,"NOL9 (peptide sequence: ITHSDVAPTHILYAVNASWVGLCK, peptide start residue: 559) (UniProt Q5SY16)",0.345
11,"LBH (peptide sequence: KDGLSYQIFPDPSDFDRCCK, peptide start residue: 37) (UniProt Q53QV2)",-0.328
12,"FKBP15 (peptide sequence: VTSLEEELTDLRVEK, peptide start residue: 722) (UniProt Q5T1M5)",0.135
13,"CEP170 (peptide sequence: IPPLVHSK, peptide start residue: 1368) (UniProt Q5SW79)",-0.502
14,"AHDC1 (peptide sequence: ADKEPLEMARPPGPPR, peptide start residue: 1514) (UniProt Q5TGY3)",-0.196
15,"PAN2 (peptide sequence: VGETYHQR, peptide start residue: 874) (UniProt Q504Q3)",0.501
16,"ATAD3B (peptide sequence: KRATEEISK, peptide start residue: 419) (UniProt Q5T9A4)",-0.0632
17,"UniProt Q5TB30 (peptide sequence: KLQLLMR, peptide start residue: 326)",-0.229
18,"DALRD3 (peptide sequence: SHALEELTSANDGR, peptide start residue: 193) (UniProt Q5D0E6)",-0.0758
19,"KLHL22 (peptide sequence: LHDKLDPSPLR, peptide start residue: 257) (UniProt Q53GT1)",-0.58

# Taken from the results shown for reference:
row,Target,log2 fold change
7,"RABGAP1L (peptide sequence: WHSNLGARPK, peptide start residue: 520) (UniProt Q5R372)",-0.444
8,"ZC3H13 (peptide sequence: GRVPELPEK, peptide start residue: 565) (UniProt Q5T200)",0.338

# The results go on.

row,Target,log2 fold change
1,"DOCK11 (peptide sequence: RQCNVDIK, peptide start residue: 795) (UniProt Q5JSL3)",0.373
2,"UniProt Q3MJ13 (peptide sequence: LLEGGSLVK, peptide start residue: 441)",0.149
3,"FRY (peptide sequence: VALESLYR, peptide start residue: 354) (UniProt Q5TBA9)",-0.0333
4,"UniProt Q5T011 (peptide sequence: LFNEHLVSASSNPALALRR, peptide start residue: 369)",-0.683
5,"AKIRIN2 (peptide sequence: MEPSPFGDVSSR, peptide start residue: 64) (UniProt Q53H80)",-0.195
6,"PREPL (peptide sequence: VIDLDMFK, peptide start residue: 349) (UniProt Q4J6C6)",-0.0987
7,"UniProt Q4G0M1 (peptide sequence: EFQLLLK, peptide start residue: 135)",-0.0799
8,"RARS2 (peptide sequence: IVVEFSSPNVAKK, peptide start residue: 127) (UniProt Q5T160)",0.63
9,"UniProt Q5HY98 (peptide sequence: IYECNQVQK, peptide start residue: 130)",0.00682
10,"CEP162 (peptide sequence: GHPQENEENSK, peptide start residue: 325) (UniProt Q5TB80)",-0.443
11,"UniProt Q53H96 (peptide sequence: MLLHEGQHPAQLR, peptide start residue: 219)",-0.0912
12,"TJAP1 (peptide sequence: GTEEGPGTSHTEGR, peptide start residue: 505) (UniProt Q5JTD0)",0.303
13,"UniProt Q5FBB7 (peptide sequence: LIQPGTFTK, peptide start residue: 259)",0.379
14,"UniProt Q5TAQ9 (peptide sequence: LQHGLEGHTGCVNTLHFNQR, peptide start residue: 185)",-1.02
15,"HSP90AA4P (peptide sequence: ESLTDPSKLDSGK, peptide start residue: 2) (UniProt Q58FG1)",0.109
16,"UniProt Q5T280 (peptide sequence: RLEEEEAAAEK, peptide start residue: 56)",-0.429
17,"ARID4B (peptide sequence: KDVHEITSDTAPKPDAVLK, peptide start residue: 228) (UniProt Q4LE39)",0.162
18,"PHF19 (peptide sequence: DSYGATSHLPNKGALAK, peptide start residue: 12) (UniProt Q5T6S3)",0.13
19,"UniProt Q5TG53 (peptide sequence: AEEAGGEEGKR, peptide start residue: 51)",-0.152
